# Data published in the supplement of paper PMC9254222.
# The full ranking holds about 1,100 compounds; the median of “Wnt reporter firefly/Renilla luciferase ratio relative to plate median” is about 1.1, and the highest 2% start at about 1.6. Only a part is listed here, and it is no random draw.
# Test system: HEK293T (UBE3A T485A transfected, BAR Wnt reporter)
# Assay: Wnt reporter firefly/Renilla luciferase ratio relative to plate median (fold (linear ratio)); higher = more Wnt/beta-catenin reporter activation
# Settings: 24 h
# Method in brief: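 HEK293T cells were grown in DMEM with 10% FBS at 37°C and 5% CO2, at 4500 cells/well in white 384-well plates. They were transfected with a BAR firefly luciferase Wnt reporter, TK-Renilla and an expression plasmid using Fugene 6. Four hours later, robots dosed the chemicals at 0.01–100 uM for 24 h, followed by Dual-Glo luciferase readout. Wnt activity (firefly/Renilla ratio) and cell health (raw Renilla) were median-centred per plate, averaged over four biological replicates.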
SMILES,Wnt reporter firefly/Renilla luciferase ratio (concentration: 0.1 uM),Wnt reporter firefly/Renilla luciferase ratio (concentration: 1 uM),Wnt reporter firefly/Renilla luciferase ratio (concentration: 10 uM),Wnt reporter firefly/Renilla luciferase ratio (concentration: 100 uM),Wnt reporter firefly/Renilla luciferase ratio (concentration: 0.01 uM)
CN(C)CCCN1c2ccccc2Sc2ccc(Cl)cc21.Cl [Chlorpromazine hydrochloride],1.22,1.15,1.2,0.181,–
O=C(O)CCN(C1(C(=O)NO)CCCC1)S(=O)(=O)c1ccc(Oc2ccc(F)cc2)cc1,1.04,1.1,0.704,1.04,–
COc1ccc2c(c1)c(CC(=O)O)c(C)n2C(=O)c1ccc(Cl)cc1 [Indomethacin],1.22,1.12,1.19,0.189,–
CCc1ccc(O)c(C(C)(C)C)c1 [2-tert-Butyl-4-ethylphenol],0.745,1,0.938,0.976,–
CN(C)C(=O)NC1(c2ccccc2)CCN(CC[C@@]2(c3ccc(F)c(F)c3)CN(C(=O)c3ccccc3)CCO2)CC1.Cl,1.23,1.04,0.891,0.365,–
O=C(O)CN(CC(=O)O)CC(=O)O [Nitrilotriacetic acid],0.925,1.21,1.11,1.25,–
CNCc1cc(F)ccc1Oc1ccc(Cl)c(Cl)c1,1.42,0.925,0.838,0.472,–
"O=S1(=O)CCCO1 [1,3-Propane sultone]",0.785,0.883,1.1,1.24,–
"Cc1cccc(C)c1O [2,6-Dimethylphenol]",1.32,0.992,1.45,1.16,–
CCOc1cccc(-n2cc(C(=O)N3CCN(c4cc(C(=O)[O-])c5ccccc5c4)CC3)nc2-c2ccc(C)cc2)c1.[Na+],0.978,0.953,0.901,0.333,–
CC(=O)/C(C)=C/C1C(C)=CCCC1(C)C (stereo not drawn) [alpha-Isomethylionone],1.53,0.895,1.3,1.4,–
O=c1ccn(C2OC(COP(=O)(O)OP(=O)(O)OP(=O)(O)O)C(O)C2O)c(=O)[nH]1 (centres undefined),–,–,–,1.94,–
CC[C@H](C)C(=O)O[C@H]1C[C@H](O)C=C2C=C[C@H](C)[C@H](CC[C@@H](O)C[C@@H](O)CC(=O)[O-])[C@H]21.[Na+] [Pravastatin sodium],1.49,1.04,1.11,1.49,–
NC(=O)N(O)[C@@H]1C=C[C@H](Oc2cccc(Oc3ccc(F)cc3)c2)C1,1.11,1.08,1.05,0.467,–
"O=C1OC(=O)C2C3C=CC(C3)C12 (centres undefined) [2-Norbornene-5,6-dicarboxylic anhydride]",1.05,0.843,1.11,1.34,–
CCCCCCC(C=O)=Cc1ccccc1 [2-Benzylideneoctanal],0.942,0.906,0.822,0.757,–
CCN(Cc1c(F)cccc1Cl)c1c([N+](=O)[O-])cc(C(F)(F)F)cc1[N+](=O)[O-] [Flumetralin],1.65,1.11,0.843,0.851,1.23
CCn1nc(Cc2ccccc2)cc1C1CCN(C[C@H]2C[C@H](N(C)[C@@H](C(=O)O)C(C)C)C[C@@H]2c2cccc(F)c2)CC1,1.29,1.1,1.01,0.156,–
CCCCCCCCCCCCc1ccccc1S(=O)(=O)O [Dodecylbenzenesulfonic acid],1.14,1.13,1.2,1.04,–
Oc1ccccc1O [Catechol],1.13,1.01,0.875,0.27,–
CC(=O)Nc1ccc(O)cc1 [Acetaminophen],1.31,1.15,1.28,1.16,–
COc1cc(C=O)ccc1O [4-Hydroxy-3-methoxybenzaldehyde],1.16,0.961,0.984,1.07,–
Cc1ccc(C(C)(C)C)c(O)c1 [2-tert-Butyl-5-methylphenol],1.13,0.98,1.28,1.37,–
C#CCOC(=O)[C@@H](C)Oc1ccc(Oc2ncc(Cl)cc2F)cc1 [Clodinafop-propargyl],1.37,1.14,1.25,0.479,1.28
O=CCCCC=O [Glutaraldehyde],1.25,1.01,1.41,1.09,–
OC1CCC(C2CCCCC2)CC1 (centres undefined) [4-Cyclohexylcyclohexanol],1.25,0.889,1.16,1.04,–
CCCCc1nc2cccnc2n1Cc1ccc(-c2ccccc2-c2nnn[n-]2)cc1.[Na+],0.867,1.04,0.946,0.145,–
CC(=O)N1CCN(c2ccc(OC[C@H]3CO[C@](Cn4ccnc4)(c4ccc(Cl)cc4Cl)O3)cc2)CC1 [Ketoconazole],1.24,0.768,1.09,0.14,–
CCCCCCCC=O [Octanal],1.09,1.13,1.13,1.36,–
CC/C(=C(/CC)c1ccc(O)cc1)c1ccc(O)cc1 [Diethylstilbestrol],0.897,0.807,0.741,0.205,–

# Record cards (already shown). Order of values: Wnt reporter firefly/Renilla luciferase ratio (concentration: 0.1 uM) | Wnt reporter firefly/Renilla luciferase ratio (concentration: 1 uM) | Wnt reporter firefly/Renilla luciferase ratio (concentration: 10 uM) | Wnt reporter firefly/Renilla luciferase ratio (concentration: 100 uM) | Wnt reporter firefly/Renilla luciferase ratio (concentration: 0.01 uM)
# Cc1cccc(C)c1O [2,6-Dimethylphenol] reads 1.32 | 0.992 | 1.45 | 1.16 | –
# Oc1ccccc1O [Catechol] reads 1.13 | 1.01 | 0.875 | 0.27 | –
